Measurements reported in PubChem BioAssay AID686943 (Drosophila RNAi Screening Center, 2013).
The screen tested about 23,000 reagents; this is an unselected part of those that have a named target and a result. 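Extra replicates exist only for a retested subset of genes; insulin dose and duration not given; both raised and lowered dpERK matter.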 The numbers tell different reagents against one gene apart. A plus sign joins genes that one reagent is predicted to hit. Not given: the amount of reagent, the time to read-out.

Screen: 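Fly genes whose loss alters ERK activation after insulin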 (primary screen)
System: Drosophila S2R+ haemocyte-like cells expressing YFP-tagged ERK (Rolled)
Knock-down reagent: long dsRNA against Drosophila genes
Challenge: insulin stimulation versus unstimulated cells; dose and duration not given
Measured: 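Per-plate z-scores of phospho-ERK immunostaining normalised to YFP-tagged ERK, measured with and without insulin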
Direction: replicate 1, z-score of dpERK with insulin and replicate 2, z-score of dpERK with insulin: higher = more active ERK per ERK-YFP after insulin; replicate 1, z-score of dpERK under basal conditions: higher = more basal active ERK per ERK-YFP; replicate 1, z-score of ERK-YFP with insulin: higher = more YFP-tagged ERK signal

target	dsRNA no.	replicate 1, z-score of dpERK with insulin	replicate 2, z-score of dpERK with insulin	replicate 1, z-score of dpERK under basal conditions	replicate 1, z-score of ERK-YFP with insulin
CG7646	1	-0.26	-0.26	0.55	0.99
CG6650	1	0.76	0.29	1.73	0.19
betaNACtes1	1	1.6	0.65	0.45	0.44
lin-52	1	0.21	0.16	3.16	0.37
shf	1	0.56	0.7	0	-0.09
CG15406	1	0.38	0.62	-0.39	-1.2
Frq2	1	-0.08	-0.21	-0.15	0.04
GluRIIE	1	0.6	-0.42	0.63	0.32
Rsph3	1	1.08	-0.57	0.77	0.06
Rsph3	2	0.14	0.3	1.49	0.28
IntS9	1	0.27	-0.13	1.46	1.46
CG8229	1	0.23	0.11	0.38	-0.65
Vps37B	1	-0.98	0.63	0.15	0.3
mRpL54	1	1.07	0.04	-0.48	-0.06
Cpr66Cb	1	-0.01	0.04	-0.92	0.35
Lcp65Ae	1	-0.58	-0.94	0.3	-0.17
CG11029	1	-0.17	-0.21	-0.54	0.2
Gmer	1	-0.04	0.04	1.37	0.54
Or65c	1	0.35	1.5	1.8	0.32
TkR99D	1	1.35	0.03	-0.01	-0.26
CG5986	1	0.85	0.5	0.72	-0.18
CG6420	1	0.67	-0.19	-0.75	-0.4
Med	1	-2.7	-2.02	-2.16	0.48
PolI	1	0.66	-0.04	-1.04	1.24
CG10646	1	-0.3	0.28	-0.62	1.43
CG12607	1	1.27	0.24	1.08	0.26
Svil	1	-0.76	-0.38	-0.68	0.1
Svil	2	-0.36	-0.36	-0.66	0.61
Svil	3	-0.85	-0.63	-0.29	0.75
Svil	4	-4.43	-2.66	0.8	-0.97
Svil	5	-0.55	-0.04	1.4	0.43
nop5	1	-0.2	-0.14	1.3	-0.62
Kr-h2	1	0.15	-0.08	-0.8	-0.41
CG10104	1	0.52	0.49	-0.25	0.41
pav	1	0.13	-0.79	1.46	-0.61
Pgd	1	-0.85	-0.09	1.04	0.08
Or98P	1	-0.06	-0.26	-0.48	0.03
CG18764	1	0.49	0.96	0.69	0.34
Irp-1B	1	-0.13	0.73	-0.02	-0.06
Rab8	1	0.27	0.68	0.17	0.07
TrpRS-m	1	-0.74	-0.18	-0.18	-1.5
CG3568	1	-0.23	0	0.04	0.64
mfr	1	0.11	-0.15	-0.82	0.51

Continued (6 carried over from the part before).
target	dsRNA no.	replicate 1, z-score of dpERK with insulin	replicate 2, z-score of dpERK with insulin	replicate 1, z-score of dpERK under basal conditions	replicate 1, z-score of ERK-YFP with insulin
CG18764	1	0.49	0.96	0.69	0.34
Irp-1B	1	-0.13	0.73	-0.02	-0.06
Rab8	1	0.27	0.68	0.17	0.07
TrpRS-m	1	-0.74	-0.18	-0.18	-1.5
CG3568	1	-0.23	0	0.04	0.64
mfr	1	0.11	-0.15	-0.82	0.51
CG34433	1	0.04	0	0.23	0.75
Ccdc56 + mtTFB1	1	0.25	-1.13	-0.2	0.27
Acp62F	1	1.44	0.54	-0.28	-0.95
CG8135 + BBIP1	1	-0.75	-0.87	-2.44	-0.88
CG8135 + BBIP1	2	0.44	0.89	-0.6	0.27
CG10638	1	0.9	0.32	2.39	0.22
betaNACtes4	1	-1.01	-0.41	0.29	0.7
CG2120	1	0.03	0.26	1.16	0.27
CG10799	1	-0.08	-1.08	-0.4	0.74
CG2816	1	0.34	0.43	-0.17	0.29
RhoGAP19D	1	1.99	2.03	0.93	-0.98
RhoGAP19D	2	-0.28	-0.3	-0.45	-0.71
eIF2gamma + Su(var)3-9	1	3.49	1.3	-2.31	-2.53
eIF2gamma + Su(var)3-9	2	-0.65	0.37	0.04	-0.35
CG9676	1	0.14	0.43	0.88	0.04
Stt3B	1	-0.12	0.46	-0.04	0.32
His2Av	1	0.62	0.47	-1.02	1.24
Tbcc	1	-0.4	1.02	-0.23	0.37
wls	1	0.11	0.95	0.64	1.37
bru3	1	0.09	-0.03	0.57	-0.01
bru3	2	-0.51	-2.53	-0.41	0.22
bru3	3	-0.46	0.74	0.7	0.39
bru3	4	0.09	1.18	0.43	0.64
bru3	5	0.32	0.13	0.99	-0.09
bru3	6	-0.02	1.01	-0.61	0.22
elm	1	-0.49	0.1	0.1	0.87
GEFmeso	1	0.77	0.31	-0.29	-0.01
GEFmeso	2	-0.13	0.13	0.45	-0.14
GEFmeso	3	-0.68	-2.16	0.93	-0.39
Arf1	1	0.9	-0.72	-0.76	-1.93
